Assay results from article PMC10538752.
Results are given in words; binding and its absence hold for the method and conditions named. Binding seen in cells or lysates may run through a third protein.

Amino acid sequences for entries named in this document (tags omitted). Residues count along the entry.
UniProt P84077: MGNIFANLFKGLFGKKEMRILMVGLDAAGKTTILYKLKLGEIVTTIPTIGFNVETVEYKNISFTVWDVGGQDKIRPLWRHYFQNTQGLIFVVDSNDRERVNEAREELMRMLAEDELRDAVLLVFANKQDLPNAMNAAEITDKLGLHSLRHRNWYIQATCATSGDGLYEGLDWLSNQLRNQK
UniProt P61204: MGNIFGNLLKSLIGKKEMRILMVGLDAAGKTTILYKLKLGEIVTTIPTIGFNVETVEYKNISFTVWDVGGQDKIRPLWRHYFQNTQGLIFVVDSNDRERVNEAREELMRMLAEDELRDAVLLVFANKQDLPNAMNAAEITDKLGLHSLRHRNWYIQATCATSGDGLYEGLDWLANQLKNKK
UniProt P62330: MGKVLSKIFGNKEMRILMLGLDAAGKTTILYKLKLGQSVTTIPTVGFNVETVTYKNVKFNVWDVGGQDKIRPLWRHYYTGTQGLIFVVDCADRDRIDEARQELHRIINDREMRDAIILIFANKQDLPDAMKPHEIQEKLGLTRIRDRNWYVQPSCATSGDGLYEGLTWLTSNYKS
UniProt P18085: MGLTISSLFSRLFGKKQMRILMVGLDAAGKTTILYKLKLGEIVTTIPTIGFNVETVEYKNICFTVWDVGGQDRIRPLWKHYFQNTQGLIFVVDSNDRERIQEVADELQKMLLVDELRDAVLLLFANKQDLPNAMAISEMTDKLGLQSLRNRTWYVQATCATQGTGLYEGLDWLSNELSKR
UniProt P84085: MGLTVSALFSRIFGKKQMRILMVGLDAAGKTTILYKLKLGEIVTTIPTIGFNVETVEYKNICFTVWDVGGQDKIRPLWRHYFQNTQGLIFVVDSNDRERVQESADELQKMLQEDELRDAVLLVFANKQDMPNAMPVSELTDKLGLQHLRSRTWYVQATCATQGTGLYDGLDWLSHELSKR
UniProt P03313, residues 1101-1429: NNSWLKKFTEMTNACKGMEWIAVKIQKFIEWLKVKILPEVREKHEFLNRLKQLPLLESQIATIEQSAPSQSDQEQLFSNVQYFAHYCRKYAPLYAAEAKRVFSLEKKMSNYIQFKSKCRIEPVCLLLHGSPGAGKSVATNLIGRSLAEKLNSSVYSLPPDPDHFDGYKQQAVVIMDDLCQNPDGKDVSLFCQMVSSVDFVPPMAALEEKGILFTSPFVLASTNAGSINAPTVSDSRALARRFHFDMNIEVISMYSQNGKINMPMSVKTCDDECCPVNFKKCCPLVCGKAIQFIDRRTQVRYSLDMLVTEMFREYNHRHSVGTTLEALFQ
UniProt P03300, residues 1128-1456: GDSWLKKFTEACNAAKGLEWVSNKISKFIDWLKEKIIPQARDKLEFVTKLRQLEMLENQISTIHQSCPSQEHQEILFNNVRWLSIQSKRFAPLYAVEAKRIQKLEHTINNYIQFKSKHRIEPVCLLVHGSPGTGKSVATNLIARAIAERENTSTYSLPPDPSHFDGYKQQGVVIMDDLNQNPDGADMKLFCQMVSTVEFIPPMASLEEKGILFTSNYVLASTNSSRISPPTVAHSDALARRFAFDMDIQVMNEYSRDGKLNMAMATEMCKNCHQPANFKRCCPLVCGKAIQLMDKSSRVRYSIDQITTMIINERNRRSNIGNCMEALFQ

Columns and labels:
[1] = target: human Arf1 fused to Venus fluorescent protein (human) (UniProt P84077); test: co-IP
[2] = target: human Arf3 fused to EGFP (human) (UniProt P61204); test: co-IP; […] (3:1), ~18 h; […] (0.1 M Tris-HCl pH 7.8, 0.5% Triton X100); […]
[3] = target: human Arf6 fused to EGFP (human) (UniProt P62330); test: as above
[4] = target: human Arf4 fused to EGFP (human) (UniProt P18085); test: as above
[5] = target: human Arf5 fused to EGFP (human) (UniProt P84085); test: as above

For “2C of Coxsackie virus B3, made in infected cells (from UniProt P03313 1101-1429)”, the binding [1] was “no binding”.

For “poliovirus 2C, wt, expressed from plasmid pM1-2C (from UniProt P03300 1128-1456)”, the binding [2] was “no binding”, the binding [3] was “no binding” and the binding [4] was “no binding”. For the same substance, the binding [5] was “no binding”.
